Data: article PMC12065020
Results are given in words; binding and its absence hold for the method and conditions named. In cells and extracts the contact can be indirect. A yes stands for co-enrichment or nearness to the bait. Other partners may have been found.

Protein sequences, listed by entry. Tags and fused reporters are not part of them.
UniProt P08670: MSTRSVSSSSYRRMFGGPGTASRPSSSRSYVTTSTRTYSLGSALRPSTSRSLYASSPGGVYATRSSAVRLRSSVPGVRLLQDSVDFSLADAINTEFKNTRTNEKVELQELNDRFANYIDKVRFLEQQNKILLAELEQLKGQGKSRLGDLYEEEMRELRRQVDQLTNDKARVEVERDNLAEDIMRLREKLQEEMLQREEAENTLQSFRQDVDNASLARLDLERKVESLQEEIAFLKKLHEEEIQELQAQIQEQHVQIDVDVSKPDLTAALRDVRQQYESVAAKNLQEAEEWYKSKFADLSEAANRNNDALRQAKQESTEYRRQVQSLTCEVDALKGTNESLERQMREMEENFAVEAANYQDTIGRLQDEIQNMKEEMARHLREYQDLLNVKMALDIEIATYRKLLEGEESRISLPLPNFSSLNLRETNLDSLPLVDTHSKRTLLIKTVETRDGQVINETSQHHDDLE
UniProt P07355: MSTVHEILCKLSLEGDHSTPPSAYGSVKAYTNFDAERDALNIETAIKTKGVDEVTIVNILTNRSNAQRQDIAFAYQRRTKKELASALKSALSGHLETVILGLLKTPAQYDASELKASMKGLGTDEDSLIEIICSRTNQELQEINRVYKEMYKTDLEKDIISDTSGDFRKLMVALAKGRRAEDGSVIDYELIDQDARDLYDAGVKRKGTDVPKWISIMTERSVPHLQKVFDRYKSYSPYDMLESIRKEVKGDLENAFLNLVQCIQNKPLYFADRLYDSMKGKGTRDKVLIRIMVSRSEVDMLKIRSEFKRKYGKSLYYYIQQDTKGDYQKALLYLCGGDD
UniProt P23528: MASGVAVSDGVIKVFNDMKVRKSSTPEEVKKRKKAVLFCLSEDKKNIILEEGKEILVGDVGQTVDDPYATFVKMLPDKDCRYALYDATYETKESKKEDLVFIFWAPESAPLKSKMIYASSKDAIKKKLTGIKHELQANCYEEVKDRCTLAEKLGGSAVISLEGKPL
UniProt P15311: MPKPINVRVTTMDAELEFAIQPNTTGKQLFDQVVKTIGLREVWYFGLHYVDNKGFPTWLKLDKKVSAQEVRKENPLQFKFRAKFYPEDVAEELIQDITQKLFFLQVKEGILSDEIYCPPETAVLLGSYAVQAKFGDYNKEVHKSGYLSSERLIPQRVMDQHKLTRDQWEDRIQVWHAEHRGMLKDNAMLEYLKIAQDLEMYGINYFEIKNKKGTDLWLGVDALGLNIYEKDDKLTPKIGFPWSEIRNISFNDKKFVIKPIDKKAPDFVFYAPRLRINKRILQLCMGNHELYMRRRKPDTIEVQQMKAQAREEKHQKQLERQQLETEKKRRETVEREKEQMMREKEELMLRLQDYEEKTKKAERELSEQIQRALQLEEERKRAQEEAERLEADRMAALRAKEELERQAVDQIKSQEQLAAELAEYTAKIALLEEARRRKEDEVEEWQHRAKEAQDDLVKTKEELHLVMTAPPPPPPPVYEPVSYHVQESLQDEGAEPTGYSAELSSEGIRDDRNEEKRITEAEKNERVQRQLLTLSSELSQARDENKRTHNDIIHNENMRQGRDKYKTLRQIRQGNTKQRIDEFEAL
UniProt P26038: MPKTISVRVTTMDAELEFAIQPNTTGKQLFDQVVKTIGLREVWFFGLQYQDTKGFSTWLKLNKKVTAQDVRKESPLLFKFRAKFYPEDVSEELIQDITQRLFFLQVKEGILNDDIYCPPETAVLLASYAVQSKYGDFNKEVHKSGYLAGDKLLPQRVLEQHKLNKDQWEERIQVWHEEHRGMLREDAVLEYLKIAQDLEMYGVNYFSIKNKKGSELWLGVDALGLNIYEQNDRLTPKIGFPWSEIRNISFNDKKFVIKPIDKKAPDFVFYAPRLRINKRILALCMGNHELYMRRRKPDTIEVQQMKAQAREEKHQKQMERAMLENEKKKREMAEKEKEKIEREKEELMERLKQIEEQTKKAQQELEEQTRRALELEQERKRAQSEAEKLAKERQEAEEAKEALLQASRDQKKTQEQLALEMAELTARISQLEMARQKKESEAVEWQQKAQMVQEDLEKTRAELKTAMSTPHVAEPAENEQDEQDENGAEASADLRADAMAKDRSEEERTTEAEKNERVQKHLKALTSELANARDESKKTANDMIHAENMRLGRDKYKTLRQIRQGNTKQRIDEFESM
UniProt P35579: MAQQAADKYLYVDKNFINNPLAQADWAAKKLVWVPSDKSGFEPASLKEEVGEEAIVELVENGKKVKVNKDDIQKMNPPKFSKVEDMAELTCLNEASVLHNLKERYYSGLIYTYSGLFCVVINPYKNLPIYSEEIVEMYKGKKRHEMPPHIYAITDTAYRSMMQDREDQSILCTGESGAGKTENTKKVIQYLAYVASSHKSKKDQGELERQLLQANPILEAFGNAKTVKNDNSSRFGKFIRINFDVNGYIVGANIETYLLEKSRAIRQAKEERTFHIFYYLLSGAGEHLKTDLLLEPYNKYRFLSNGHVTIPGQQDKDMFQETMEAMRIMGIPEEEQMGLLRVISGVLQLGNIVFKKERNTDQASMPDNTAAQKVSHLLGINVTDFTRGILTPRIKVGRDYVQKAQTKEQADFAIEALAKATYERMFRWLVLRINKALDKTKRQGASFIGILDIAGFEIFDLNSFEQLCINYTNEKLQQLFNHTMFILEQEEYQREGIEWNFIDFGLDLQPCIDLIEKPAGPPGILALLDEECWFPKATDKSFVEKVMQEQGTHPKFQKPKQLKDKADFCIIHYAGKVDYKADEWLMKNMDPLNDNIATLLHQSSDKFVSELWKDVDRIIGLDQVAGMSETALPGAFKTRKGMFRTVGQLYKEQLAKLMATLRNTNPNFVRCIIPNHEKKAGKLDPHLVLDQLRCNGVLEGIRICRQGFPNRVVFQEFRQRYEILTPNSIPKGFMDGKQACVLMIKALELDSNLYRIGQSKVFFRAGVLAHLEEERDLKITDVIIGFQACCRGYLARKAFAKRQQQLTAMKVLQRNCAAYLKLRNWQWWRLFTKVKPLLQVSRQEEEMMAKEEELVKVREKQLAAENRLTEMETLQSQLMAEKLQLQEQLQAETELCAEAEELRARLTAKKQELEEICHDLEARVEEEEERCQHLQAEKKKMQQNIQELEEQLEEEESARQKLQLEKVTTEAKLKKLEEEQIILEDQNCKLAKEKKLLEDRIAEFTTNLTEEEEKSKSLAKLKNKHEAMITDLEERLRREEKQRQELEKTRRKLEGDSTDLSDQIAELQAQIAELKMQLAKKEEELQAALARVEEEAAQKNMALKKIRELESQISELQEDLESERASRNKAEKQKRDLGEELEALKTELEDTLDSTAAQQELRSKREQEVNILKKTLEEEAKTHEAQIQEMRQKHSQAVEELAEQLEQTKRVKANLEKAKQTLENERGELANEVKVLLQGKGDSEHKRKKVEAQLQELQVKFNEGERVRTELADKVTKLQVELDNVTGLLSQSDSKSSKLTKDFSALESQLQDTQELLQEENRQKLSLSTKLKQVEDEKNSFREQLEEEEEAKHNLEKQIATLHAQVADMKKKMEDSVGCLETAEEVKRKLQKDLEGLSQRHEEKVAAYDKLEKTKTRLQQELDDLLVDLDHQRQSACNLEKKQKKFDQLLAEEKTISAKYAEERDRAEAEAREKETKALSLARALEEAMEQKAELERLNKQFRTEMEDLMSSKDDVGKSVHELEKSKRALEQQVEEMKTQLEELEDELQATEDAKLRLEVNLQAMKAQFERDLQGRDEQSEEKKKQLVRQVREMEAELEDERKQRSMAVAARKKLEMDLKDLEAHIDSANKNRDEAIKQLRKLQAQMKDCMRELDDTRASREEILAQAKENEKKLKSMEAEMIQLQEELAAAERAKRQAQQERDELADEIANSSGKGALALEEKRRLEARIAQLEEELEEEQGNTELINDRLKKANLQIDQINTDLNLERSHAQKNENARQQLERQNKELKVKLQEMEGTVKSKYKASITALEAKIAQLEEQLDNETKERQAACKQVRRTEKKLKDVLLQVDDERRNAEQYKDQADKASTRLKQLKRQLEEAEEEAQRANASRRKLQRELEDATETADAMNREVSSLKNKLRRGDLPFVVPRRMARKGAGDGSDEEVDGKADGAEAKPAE
UniProt P26447: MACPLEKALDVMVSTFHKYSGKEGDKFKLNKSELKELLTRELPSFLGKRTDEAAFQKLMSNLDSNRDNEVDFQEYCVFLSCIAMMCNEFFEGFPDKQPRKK
UniProt P60903: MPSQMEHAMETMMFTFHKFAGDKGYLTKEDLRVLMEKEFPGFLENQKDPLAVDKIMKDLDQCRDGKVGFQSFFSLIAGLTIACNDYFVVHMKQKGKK

Target: Vimentin (human (endogenous in hGF)) (UniProt P08670)
Experiment: affinity purification with mass spectrometry; vimentin immunoprecipitated from hGF lysates with vimentin antibody on Protein A Dynabeads; pre-immune serum beads subtracted; four replicated experiments

Substance	binding
Annexin A2 (from UniProt P07355 1-339)	binds
Cofilin-1 (from UniProt P23528 1-166)	binds
Ezrin (from UniProt P15311 1-586)	binds
Moesin (from UniProt P26038 1-577)	binds
Myosin-9 (from UniProt P35579 1-1960)	binds
Protein S100-A4 (from UniProt P26447 1-101)	binds
Protein S100-A10 (from UniProt P60903 1-97)	binds
